In paper PMC6925144, “A prospective compound screening contest identified broader inhibitors for Sirtuin 1” (Scientific Reports, 2019):
Whole data set: some 3,200 compounds, median “TSA(without NAD+) / Primary screening (TSA) / delta Tm (K)” near -0.07, cut for the highest 2% near 0.37. Some of the results follow.

The chains behind the UniProt entries cited, without tags or fusion partners. Residues count along the entry.
UniProt Q96EB6, 2-747 limits assumed: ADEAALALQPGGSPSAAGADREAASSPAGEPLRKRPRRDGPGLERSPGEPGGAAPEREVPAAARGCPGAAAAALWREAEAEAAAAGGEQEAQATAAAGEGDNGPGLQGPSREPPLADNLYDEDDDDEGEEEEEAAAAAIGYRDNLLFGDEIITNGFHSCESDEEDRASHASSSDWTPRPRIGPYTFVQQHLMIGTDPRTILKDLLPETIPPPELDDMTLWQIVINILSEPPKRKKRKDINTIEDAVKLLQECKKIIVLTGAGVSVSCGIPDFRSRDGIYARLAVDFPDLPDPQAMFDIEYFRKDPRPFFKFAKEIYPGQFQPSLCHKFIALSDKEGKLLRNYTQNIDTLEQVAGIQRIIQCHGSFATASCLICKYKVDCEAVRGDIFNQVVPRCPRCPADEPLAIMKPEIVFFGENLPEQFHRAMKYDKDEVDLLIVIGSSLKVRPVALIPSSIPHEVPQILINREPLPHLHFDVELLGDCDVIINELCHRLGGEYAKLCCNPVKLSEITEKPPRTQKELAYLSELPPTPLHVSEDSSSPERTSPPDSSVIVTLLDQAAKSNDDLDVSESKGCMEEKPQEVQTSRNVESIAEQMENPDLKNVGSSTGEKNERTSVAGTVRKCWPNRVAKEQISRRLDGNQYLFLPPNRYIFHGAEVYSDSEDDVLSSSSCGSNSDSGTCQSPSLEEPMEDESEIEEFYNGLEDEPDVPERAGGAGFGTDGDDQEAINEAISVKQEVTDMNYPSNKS

These compounds were tested against NAD-dependent deacetylase Sirtuin 1 (human, UniProt Q96EB6) (assay: primary screen, delta tm). Details: 10 µM.
Design: single well (n = 1)
In short: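 Thermal shift of Sirtuin 1 measured without NAD+, compound at 10 µM (n = 1); value is ΔTm, with hits defined as ΔTm > 0.45 K or < −1.5 K. Hits retested at 5, 10, 20 µM (n = 4) and counterscreened on bovine carbonic anhydrase and ABL1 SH2 domain.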

Row | Structure (SMILES) | TSA(without NAD+) / Primary screening (TSA) / delta Tm (K)
1 | CCOc1ccc(C2C(C(=O)c3ccco3)=C(O)C(=O)N2CCCN2CCOCC2)cc1 (stereo not drawn) | -0.13 K
2 | CN(C(=O)CSc1nnc(NCc2ccco2)s1)C1CCCc2ccccc21 (stereo not drawn) | -0.03 K
3 | O=C(NC1(C(=O)N2CCN(C(=O)c3cnccn3)CC2)CCOC1)OCc1ccccc1 (stereo not drawn) | -0.12 K
4 | N#Cc1ccc(CN2CCC(CCc3ccc(O)cc3)CC2)cc1 | 0.08 K
5 | Cc1[nH]c2ccc(C(=O)O)cc2c1C | -0.13 K
6 | C#CCCN1CCN(C(C)C(=O)N(C)C(C)C)CC1 (stereo not drawn) | -0.24 K
7 | Cc1ccc(N(C)S(=O)(=O)c2cccc(C(=O)Nc3ccc(Br)c(C)c3)c2)cc1 | 0.48 K
8 | Cc1ccc(OCCNC(=O)Cc2coc3cc4c(cc23)CCC4)cc1 | -0.07 K
9 | OCn1cnc2ccccc21 | -0.31 K
10 | Cc1ccc(OCC(O)Cn2c(C(F)(F)F)ccc(C(N)=O)c2=O)cc1 (stereo not drawn) | -0.13 K
11 | CCCOc1ccc2cc(C(=O)c3ccc(N(C)S(C)(=O)=O)cc3)oc2c1 | -0.05 K
12 | COc1ccc(N)c(OC)c1 | -0.02 K
13 | Cc1ccc(-n2nnnc2SCc2nc3c(cnn3-c3ccccc3)c(=O)[nH]2)cc1 | -0.15 K
14 | CCc1nn2c(=O)cc(COC(=O)C(O)(c3ccccc3)c3ccccc3)nc2s1 | -0.08 K
15 | N#CCNC(=O)c1ccc2[nH]c3c(c2c1)CCCC3 | -0.01 K
16 | COc1cccc(C(=O)OC(C)C(=O)Nc2ccc(C(N)=O)cc2)c1OC (stereo not drawn) | 0.12 K
17 | CN(C)C(=O)N1CCCC(C(=O)Nc2ccc3c(c2)-c2ccccc2C3)C1 (stereo not drawn) | -0.23 K
18 | Cc1nc(-c2ccccn2)[nH]c(=O)c1CC(=O)NCCc1cccc2cccnc12 | -0.07 K
19 | CN(c1ccccc1)S(=O)(=O)c1cccc(C(=O)Nc2ccccc2)c1 | 0.12 K
20 | CCc1ccc(C(N)=S)cc1 | -0.22 K
21 | CCc1ncc(F)c(Cl)n1 | -0.22 K

Row | Structure (SMILES) | TSA(without NAD+) / Primary screening (TSA) / delta Tm (K)
22 | CCn1cc(C2CCN(C(=O)Cc3cnc4ccccc4c3)CC2)cn1 | -0.17 K
23 | COC(C)CN (stereo not drawn) | -0.17 K
24 | Cc1oc(C)c(C(=O)NCc2cccc(NC(=O)CN(C)C)c2)c1C | -0.18 K
25 | Nc1nc(-c2cc3ccccc3oc2=O)nc2c1c(=O)oc1ccccc12 | 0.08 K
26 | CC(N)CCN(C)C (stereo not drawn) | -0.11 K
27 | Cc1oc(-c2ccccc2)nc1CN1CCN(c2nncc3ccccc23)CC1 | -0.05 K
28 | Cc1c(Cl)cccc1NC(=O)CNC(N)=O | -0.28 K
29 | COc1cccc(CSc2nc3ccsc3c(=O)n2C)c1 | -0.13 K
30 | CCOc1cc(N2CCOCC2)c(OCC)cc1NC(=O)C1=COCCO1 | -0.15 K
31 | CCNc1ccnc(CSc2nc3ccsc3c(=O)n2C)c1 | 0.15 K
32 | COC(=O)CNC(=O)c1cccc(NC(=O)CCc2nnc(-c3ccc(Cl)cc3)o2)c1 | 0.02 K
33 | O=C1/C(=C/c2cccc(Br)c2)Oc2cc(O)ccc21 | 0.19 K
34 | CC(SCc1cccc2ccccc12)C(=O)Nc1ncccn1 (stereo not drawn) | -0.17 K
35 | O=C(OCc1ccccc1)c1c[nH]c2ccccc12 | -0.24 K
36 | O=C(COC(=O)c1ccc(S(=O)(=O)N2CCCc3ccccc32)cc1)NC12CC3CC(CC(C3)C1)C2 | -0.05 K
37 | CCCC(N)CC (stereo not drawn) | -0.11 K
38 | COc1cc(C(C)=O)ccc1OCc1noc(C)n1 | -0.24 K
39 | COC(=O)c1ccccc1Nc1ccnc(Cl)n1 | -0.15 K
40 | CCOCCNc1ncnc2ccsc12 | -0.04 K
41 | CCCC(C(=O)Nc1cc(C)on1)N1CCCC(c2nc(C)no2)C1 (stereo not drawn) | -0.07 K
42 | Cc1ccc2oc(C3(C)Cc4ccccc4C(=O)O3)cc(=O)c2c1 (stereo not drawn) | 0.02 K

Row | Structure (SMILES) | TSA(without NAD+) / Primary screening (TSA) / delta Tm (K)
43 | Cc1cccc(Cc2cnc(NC(=O)CCNC(=O)c3ccccc3Cl)s2)c1 | -0.12 K
44 | N#CCn1cc(C(F)(F)F)cc(Cl)c1=O | -0.28 K
45 | Cc1nc(C(C)NC(=O)c2ccc(Cl)s2)sc1C(=O)O (stereo not drawn) | -0.08 K
46 | Cc1c(C(=O)NCC2CCCc3ccccc32)[nH]c2c1C(=O)CC(C)(C)C2 (stereo not drawn) | -0.34 K
47 | O=C(COC(=O)C1=COCCO1)NC(c1ccccc1)c1ccccc1 | -0.14 K
48 | CC(C)c1ccccc1-n1c(SCC(=O)Nc2sccc2C(N)=O)nc2ccccc2c1=O | 0.22 K
49 | O=C1CCCN1Cc1ccc(-c2ccccc2CNC(=O)C23CC4CC(CC(C4)C2)C3)cc1 | -0.28 K
50 | CC1(CN)CCNC1 (stereo not drawn) | -0.13 K
51 | Cc1sc2ncnc(N3CCC(C(=O)N(C)CC(=O)Nc4ccccc4Cl)CC3)c2c1C | -0.13 K
52 | O=C(Nc1cccc(S(=O)(=O)N2CCOCC2)c1)C(c1ccccc1)c1ccccc1 | 0.09 K
53 | NC(=O)C1CCN(c2ncnc3c2oc2ccccc23)CC1 | -0.13 K
54 | O=C(CSc1nc2ccccc2c(=O)n1CCCO)c1cc(F)ccc1F | -0.15 K
55 | COc1cc(NC(=O)c2ccco2)c(C(=O)OCC(=O)NC(C)C23CC4CC(CC(C4)C2)C3)cc1OC (stereo not drawn) | -0.07 K
56 | Cc1nc(S)sc1CC(=O)N1CCCC(C)(O)C1 (stereo not drawn) | -0.21 K
57 | N#CCOc1ccccc1/C=C1\Oc2cc(O)ccc2C1=O | -0.11 K
58 | Cc1c(Cl)cccc1NC(=O)CNc1cc(C(N)=O)c(Cl)cc1Cl | -0.03 K
59 | Cc1c2c(c(C#N)c3nc4ccccc4n13)CCCC2 | -0.23 K
60 | CCc1cccc(CC)c1NC(=O)C(c1ccccc1)c1ccccc1 | 0.03 K
61 | Cc1ccc(C)c(NC(=O)CN(C)C(=O)Cn2cnc3scc(-c4ccc(C)s4)c3c2=O)c1 | -0.02 K
62 | COc1ccc(C2C(C(=O)/C=C/c3ccco3)=C(O)C(=O)N2CCN2CCOCC2)cc1OC (stereo not drawn) | 0.03 K
63 | COc1cccc(C2C(C(=O)/C=C/c3ccco3)=C(O)C(=O)N2CCN2CCOCC2)c1OC (stereo not drawn) | -0.07 K

Another view of some results above:
Row	Structure (SMILES)	TSA(without NAD+) / Primary screening (TSA) / delta Tm (K)
2	CN(C(=O)CSc1nnc(NCc2ccco2)s1)C1CCCc2ccccc21 (stereo not drawn)	-0.03 K
3	O=C(NC1(C(=O)N2CCN(C(=O)c3cnccn3)CC2)CCOC1)OCc1ccccc1 (stereo not drawn)	-0.12 K
4	N#Cc1ccc(CN2CCC(CCc3ccc(O)cc3)CC2)cc1	0.08 K
5	Cc1[nH]c2ccc(C(=O)O)cc2c1C	-0.13 K
6	C#CCCN1CCN(C(C)C(=O)N(C)C(C)C)CC1 (stereo not drawn)	-0.24 K
7	Cc1ccc(N(C)S(=O)(=O)c2cccc(C(=O)Nc3ccc(Br)c(C)c3)c2)cc1	0.48 K
8	Cc1ccc(OCCNC(=O)Cc2coc3cc4c(cc23)CCC4)cc1	-0.07 K
9	OCn1cnc2ccccc21	-0.31 K
10	Cc1ccc(OCC(O)Cn2c(C(F)(F)F)ccc(C(N)=O)c2=O)cc1 (stereo not drawn)	-0.13 K
11	CCCOc1ccc2cc(C(=O)c3ccc(N(C)S(C)(=O)=O)cc3)oc2c1	-0.05 K
12	COc1ccc(N)c(OC)c1	-0.02 K
13	Cc1ccc(-n2nnnc2SCc2nc3c(cnn3-c3ccccc3)c(=O)[nH]2)cc1	-0.15 K
